These results are taken from patent US7452865B2 (The Administrare's of the Tulane Educational Fund, priority 2004, dated 2008).

The nature of the first data set: general procedure: Boc solid-phase peptide synthesis; MBHA resin (Bachem); Merrifield resin for -NHEt peptides; Boc-Agm-SPA-MBHA resin for Agm peptides; DIC; preformed HOBt esters for Boc-Asn-OH and Boc-Gln-OH. As to conditions: whole synthesis, 220 and 280 nm, scale of the general procedure 0.50 mmol.
With “HOOC(CH2)12CO-Tyr^1D-Arg^2-Asp^3-Ala^4-Ile^5-Phe(pCl)^6-Thr^7-Asn^8-Arg^9-Tyr^10-Arg^11, Lys^12, Val^13-Leu^14-Abu^15-Gln^16-Leu^17-Ser^18-Ala^19-Arg^20-Lys^21-Leu^22-Leu^23-Gln^24-Asp^25-Ile^26-Nle^27-D-Arg^28-Har^29-NH2”, the “final HPLC purity” value was greater than 95%.
The same measure, in the same setting: the value for “[CH3(CH2)6CO-Tyr^1, D-Arg^2, Phe(pCl)^6, Ala^8, His^9, Tyr(Et)^10, His^11, Abu^15, Nle^27, D-Arg^28, Har^29]hGH-RH(1-29)NH2” was greater than 95%; that for “[PhAc-Tyr^1, D-Arg^2, Phe(pCl)^6, Har^9, Tyr(Me)^10, His^11, Abu^15, Nle^27, D-Arg^28, Har^29]hGH-RH(1-29)NH2” was greater than 95%.

The data set is the same for the next values; noted with them: whole synthesis, analytical HPLC, Supelco Discovery HS C18, 220 and 280 nm, scale of the general procedure 0.50 mmol.
Consider “PhAc-Tyr^1-D-Arg^2-Asp^3-Ala^4-Ile^5-Phe(pCl)^6-Thr^7-Asn^8-Har^9-Tyr(Me)^10-Arg^11-Lys^12-Val^13-Leu^14-Abu^15-Gln^16-Leu^17-Ser^18-Ala^19-Arg^20-Lys^21-Leu^22-Leu^23-Gln^24-Asp^25-Ile^26-Nle^27-D-Arg^28-Har^29-NHEt”, for which the “final HPLC purity” value is on record as “higher than 95%”.
Same read-out and setting: the value for “[CH3(CH2)6CO-Tyr^1, D-Arg^2, Phe(pCl)^6, Amp^9, Tyr(Me)^10, Abu^15, Nle^27, D-Arg^28, Har^29]hGH-RH(1-29)NH2” was greater than 95%.
On to “[PhAc-Tyr^1, D-Arg^2, Phe(pCl)^6, Amp^9, Tyr(Me)^10, Abu^15, Nle^27, D-Arg^28, Har^29]hGH-RH(1-29)NH2”, for which the “final HPLC purity” value is given as greater than 95%.
The same measure, in the same setting: as for “[Hca-Tyr^1, D-Arg^2, Phe(pCl)^6, Har^9, Tyr(Me)^10, Abu^15, Nle^27, D-Arg^28, Har^29, Agm^30]hGH-RH(1-30)”, the entry is “higher than 95%”.
Same read-out and setting: as for “[HOOC(CH2)12CO-Tyr^1, D-Arg^2, Phe(pCl)^6, Amp^9, Tyr(Me)^10, Abu^15, Nle^27, D-Arg^28, Har^29]hGH-RH(1-29)NH2”, the figure is greater than 95%.
